Data published in paper PMC4345318, “Dynamic association of PfEMP1 and KAHRP in knobs mediates cytoadherence during Plasmodium invasion” (Scientific Reports, 2015).
No constants are given. Whether binding was seen depends on the method and setting. Where a sequence is shown, tags or fusion partners need not be part of it.

Amino acid sequences for entries named in this document (tags omitted). Residues count along the entry.
UniProt P02769, residues 25-607: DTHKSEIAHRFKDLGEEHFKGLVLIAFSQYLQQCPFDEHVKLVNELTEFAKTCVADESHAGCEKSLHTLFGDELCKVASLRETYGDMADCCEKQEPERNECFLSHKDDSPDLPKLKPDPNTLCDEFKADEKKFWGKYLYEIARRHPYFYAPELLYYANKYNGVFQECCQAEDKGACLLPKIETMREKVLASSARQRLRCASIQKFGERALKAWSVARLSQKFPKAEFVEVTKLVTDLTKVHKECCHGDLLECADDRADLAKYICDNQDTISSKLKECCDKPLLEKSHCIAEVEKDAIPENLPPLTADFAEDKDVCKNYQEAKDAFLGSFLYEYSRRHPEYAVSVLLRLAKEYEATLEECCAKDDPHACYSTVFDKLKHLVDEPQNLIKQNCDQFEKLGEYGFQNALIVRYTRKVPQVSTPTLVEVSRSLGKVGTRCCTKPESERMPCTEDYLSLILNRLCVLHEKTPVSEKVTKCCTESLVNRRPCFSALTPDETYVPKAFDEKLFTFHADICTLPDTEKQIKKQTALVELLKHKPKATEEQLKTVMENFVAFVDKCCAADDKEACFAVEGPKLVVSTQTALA

Molecular target: T1, K2A1 (first of the two tandem repeats of the K2A region of knob associated histidine rich protein, KAHRP) (Plasmodium falciparum) (UniProt Q9TY99)
T1 sequence: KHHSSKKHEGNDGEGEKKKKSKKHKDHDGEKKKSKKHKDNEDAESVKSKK
Assay: NMR titration; controls: 2D [15N,1H] HSQC of 15N-labelled K2A1 titrated against bovine serum albumin or human α-synuclein at 1:0.5, 1:1, 1:2 and 1:5 molar ratios; both purified

bovine serum albumin (from UniProt P02769 25-607)
binding: no binding (tested: up to 1:5 molar ratio)
